From the supplement of paper PMC12009310
Structures can show the parent of a compound that is named as a salt. ± gives the standard deviation of the averaged measurements. The list shows a part of the results. Baselines shift from plate to plate; read single values as rough.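 The cells are a mouse kidney inner medullary collecting duct line, silenced either for the ciliary gene Rpgrip1l or with a non-targeting control siRNA.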

System: mIMCD3
Assay: robust z score of cilia incidence (% cells with single cilium) vs plate controls; higher = more ciliated cells (rescue of cilia loss)
Details: 10 µM; 48 h; siRNA: siRpgrip1l

CN(C)CCCSc1ccccc1NC(=O)/C=C/c1ccccc1 [Cinanserin hydrochloride] and CNCCC(Oc1ccccc1OC)c1ccccc1 (stereo not drawn) [Nisoxetine hydrochloride] are within error of each other in “robust z score of cilia incidence” value: -25.7 ± 15 for the first, -9.98 ± 1.6 for the second.

O=C(O)Cc1ccc(OCCNC[C@H](O)c2ccccc2)cc1 [ZD 2079 hydrochloride] and CC(C(=O)O)c1ccc(-c2ccccc2)c(F)c1 (stereo not drawn) [Flurbiprofen] are within error of each other in “robust z score of cilia incidence” value: -10.3 ± 1 for the first, -16.6 ± 6.6 for the second.

Compared with CC(=O)NCCc1c(Cc2ccccc2)[nH]c2ccccc12 [Luzindole], C[N+]1(C)CCC(OC(=O)C(c2ccccc2)c2ccccc2)CC1 is higher in “robust z score of cilia incidence” value: -8.44 ± 2.9 for the first, 0.338 ± 0.34 for the second.

Cc1ccc(/C(=C\CN2CCCC2)c2ccccn2)cc1 [trans-Triprolidine hydrochloride] and CN(C)C/C=C(/c1ccc(Br)cc1)c1cccnc1 [Zimelidine dihydrochloride] are within error of each other in “robust z score of cilia incidence” value: -16.2 ± 1.6 for the first, -13.8 ± 7.7 for the second.

Going from COc1cc(N)c(Cl)cc1C(=O)OCCCN1CCCCC1 to COc1cc2nc(N3CCN(C(=O)c4ccco4)CC3)nc(N)c2cc1OC [Prazosin hydrochloride], the “robust z score of cilia incidence” value falls from -7.89 ± 1.2 to -23.3 ± 2.3.

Cc1nnc(-c2ccc3occ(-c4ccc([S+](C)[O-])cc4)c3c2)o1 (stereo not drawn) and COc1ccc2c(c1)c(CC(=O)O)c(C)n2C(=O)c1ccc(Cl)cc1 [Indomethacin] are within error of each other in “robust z score of cilia incidence” value: -10.8 ± 8.4 for the first, -11.2 ± 6.5 for the second.

CC[N+](CC)(CC)CC(=O)Nc1c(C)cccc1C [QX 314 chloride] and CCC(=O)NC1CCc2cccc(OC)c2C1 (stereo not drawn) are within error of each other in “robust z score of cilia incidence” value: -9.96 ± 3.4 for the first, -13.2 ± 1.6 for the second.

C=CCc1cccc(/C=N/NC(=O)CN2CCN(Cc3ccccc3)CC2)c1O and Cc1nn(-c2ccccc2)c(C)c1C=NN1CCN(Cc2ccccc2)CC1 are within error of each other in “robust z score of cilia incidence” value: -48.5 ± 14 for the first, -26.8 ± 18 for the second.

CC(C)(C=O)Cc1cc(C(C)(C)C)c(O)c(C(C)(C)C)c1 and C[C@@H](NCc1cc(Br)cc2[nH]c(=O)c(=O)[nH]c12)P(=O)(O)O are within error of each other in “robust z score of cilia incidence” value: -134 ± 69 for the first, -158 ± 120 for the second.

CNC(=O)[C@H]1O[C@@H](n2cnc3c(NCc4cccc(I)c4)ncnc32)[C@H](O)[C@@H]1O and CCN(CC)CC1CCCCN1CC(=O)N1c2ccccc2C(=O)Nc2cccnc21 (stereo not drawn) are within error of each other in “robust z score of cilia incidence” value: -19.5 ± 3.6 for the first, -18.4 ± 1.2 for the second.

Compared with Oc1cc2c(cc1O)C(c1ccccc1)CNCC2 (stereo not drawn), COc1cccc2c1C(=O)c1c(O)c3c(c(O)c1C2=O)C[C@@](O)(C(C)=O)C[C@@H]3O[C@H]1C[C@H](N)[C@H](O)[C@H](C)O1 [Daunorubicin hydrochloride] is lower in “robust z score of cilia incidence” value: -8.22 ± 0.15 for the first, -44.95 ± 0.15 for the second.

With c1nc(CC2CCNCC2)c[nH]1 [Immepip dihydrobromide] the “robust z score of cilia incidence” value was -8.8 ± 0.3.
